Experimental data from article PMC12700548.
No constants are given. Whether binding was seen depends on the method and setting. Binding seen in cells or lysates may run through a third protein. Some results given as binding are weak or reduced against the parent protein; the word gives no strength.

Sequences of proteins named here, by UniProt entry; tags and fusion partners are left off. A change or cut given only in a name is not applied to a line headed by its entry. A line that says so, or that is headed by a name, gives the form on record, which may keep a tag or linker.
UniProt P16520: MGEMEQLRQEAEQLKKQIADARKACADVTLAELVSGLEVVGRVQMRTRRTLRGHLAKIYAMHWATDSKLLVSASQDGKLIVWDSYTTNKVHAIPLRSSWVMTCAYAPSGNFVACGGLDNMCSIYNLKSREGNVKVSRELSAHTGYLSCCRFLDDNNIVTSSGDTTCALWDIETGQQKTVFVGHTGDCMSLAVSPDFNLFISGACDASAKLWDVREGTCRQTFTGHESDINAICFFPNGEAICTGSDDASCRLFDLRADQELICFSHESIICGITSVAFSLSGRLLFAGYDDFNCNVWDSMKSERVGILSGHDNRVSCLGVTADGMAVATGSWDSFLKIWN
UniProt P50148: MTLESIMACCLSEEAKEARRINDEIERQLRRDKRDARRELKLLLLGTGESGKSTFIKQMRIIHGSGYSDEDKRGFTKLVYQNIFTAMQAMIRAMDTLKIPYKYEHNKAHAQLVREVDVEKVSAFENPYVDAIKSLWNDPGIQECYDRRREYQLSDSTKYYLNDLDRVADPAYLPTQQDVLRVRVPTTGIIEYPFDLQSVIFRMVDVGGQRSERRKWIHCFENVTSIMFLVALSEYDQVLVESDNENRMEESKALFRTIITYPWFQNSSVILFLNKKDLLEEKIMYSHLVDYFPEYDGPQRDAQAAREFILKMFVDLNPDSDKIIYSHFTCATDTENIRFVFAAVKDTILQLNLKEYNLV
GαsS-RLuc8 (TRUPATH biosensor) (P63092-2, form named): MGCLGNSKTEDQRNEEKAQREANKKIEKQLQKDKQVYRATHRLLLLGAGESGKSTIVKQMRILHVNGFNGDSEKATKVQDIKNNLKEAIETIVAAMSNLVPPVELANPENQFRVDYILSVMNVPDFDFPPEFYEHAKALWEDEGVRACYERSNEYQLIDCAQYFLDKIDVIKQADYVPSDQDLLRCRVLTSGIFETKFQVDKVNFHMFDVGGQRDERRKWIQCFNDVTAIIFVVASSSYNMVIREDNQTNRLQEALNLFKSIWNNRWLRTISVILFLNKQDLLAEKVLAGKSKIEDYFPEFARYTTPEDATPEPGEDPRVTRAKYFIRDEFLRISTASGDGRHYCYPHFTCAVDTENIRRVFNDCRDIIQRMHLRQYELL

Target: Gβ3 / Gγ9-GFP (TRUPATH biosensor) (UniProt P16520)
Assay: FRET or BRET; TRUPATH G protein dissociation assay in HEK293T cells transfected with receptor (FLAG-β1AR, FLAG-β2AR or FLAG-AT1R), Gα-RLuc8, Gβ3 and Gγ9-GFP; pretreated with 0.19% DMSO or 30 μM C11, stimulated with agonist for 10 minutes at 37°C; BRET decays on receptor activation

Substance	binding
Gαq-RLuc8 (TRUPATH biosensor) (from UniProt P50148 1-359)	binds
GαsS-RLuc8 (TRUPATH biosensor) (from UniProt P63092-2 1-380)	binds
